Test results reported in the supplement of paper PMC12578635.
This is one part of the list. No stated cut-off is given here; in the data, active = 150% or more and inactive = the rest. Most values come without repeats; read them as rough.

Test system: Staphylococcus aureus JE2-lux inside RAW 264.7 macrophages
Assay: intracellular bacterial bioluminescence relative to DMSO vehicle; higher = higher intracellular bacterial metabolic activity
Conditions: 10 µM; treatment time 4 h; gentamicin 50 µg/ml

| SMILES | intracellular bacterial bioluminescence |
| --- | --- |
| CCOC(=O)c1ccsc1NC(=O)c1coc2ccccc2c1=O | inactive: 118% |
| O=C1CCc2cc(S(=O)(=O)NCc3ccco3)cc3c2N1CC3 | inactive: 126% |
| CCOC(=O)c1cccc(NC(=O)C2CCN(c3nccc4c(C)nn(CC)c34)CC2)c1 | inactive: 25.5% |
| CCc1ccc(NC(=O)c2sc3nc4c(c(-c5ccco5)c3c2N)CCCC4)cc1 | inactive: 79.7% |
| N#Cc1ccc(-c2ccco2)nc1SCC(=O)NCc1ccc2c(c1)OCO2 | inactive: 108% |
| CCc1ccccc1NS(=O)(=O)c1cc(-c2ccn[nH]2)cs1 | inactive: 94.4% |
| Cn1ncc2c1CCc1sc(NC(=O)CC3SC(=O)NC3=O)nc1-2 (configuration not stated) | inactive: 94.8% |
| O=C1c2oc3ccccc3c(=O)c2C(c2ccccc2)N1Cc1cccnc1 (configuration not stated) | inactive: 101% |
| CN1C(=O)N(CC(=O)NC2CCCC2)c2cccnc2N1C | inactive: 108% |
| CC1Cc2ccccc2N1Cc1nnc(-c2ccccc2)o1 (configuration not stated) | inactive: 87% |
| COc1nn(C)cc1C(=O)Nc1ccc(C)c(C)c1 | inactive: 89.2% |
| CC1CCCN(c2cc(C(=O)O)c3cc(NC(=O)c4ccc(Br)cc4)ccc3n2)C1 (configuration not stated) | inactive: 98.7% |
| Cc1cccc(C)c1OCCn1c(CO)nc2ccccc21 | inactive: 91.5% |
| COc1ccc(-n2ccnc(SCC(=O)NCc3ccccc3)c2=O)cc1OC | inactive: 70.6% |
| CC(=O)c1ccc(NC(=O)CSc2ncc(C(=O)Nc3ccc(C)c(C)c3)c(=O)n2C)cc1 | inactive: 98.3% |
| CCCc1cc(=O)[nH]c2nnc(SCC(=O)NC3CCCC3)n12 | active: 150% |
| CCOc1ccc(C(=O)Nc2c(N)nc(SCC(=O)N(CC)CC)[nH]c2=O)cc1 | inactive: 90.9% |
| CCOc1ccccc1NC(=O)CSc1nc2cc3c(cc2cc1C#N)OCO3 | inactive: 112% |
| Cc1ccc(S(=O)(=O)Nc2ccccc2C(=O)Nc2sc3c(c2C#N)CCC3)cc1 | inactive: 93.9% |
| Cc1ccc(-n2nnc(C(=O)N3CCSCC3)c2-c2ccncc2)cc1C | inactive: 104% |
| CC1CN(C)CCC1CCc1ccc(NC(=O)c2n[nH]c3c2CCC3)cc1 (configuration not stated) | inactive: 148% |
| Cc1ccc(-c2noc(-c3cccnc3N(C)Cc3ccccc3)n2)cc1 | inactive: 83.5% |
| COc1ccc(N2CCN(c3ncnc4c3c(C)c(C)n4-c3ccccc3)CC2)cc1 | inactive: 124% |

| SMILES | intracellular bacterial bioluminescence |
| --- | --- |
| Nc1c(C(=O)NCc2cccs2)c2nc3ccccc3nc2n1-c1ccc(F)cc1 | inactive: 45% |
| Clc1ccc(Cl)c2sc(N3CCCC3)nc12 | inactive: 85.1% |
| C=CCn1c(CSc2nc(N)cc(N)n2)n[nH]c1=S | inactive: 126% |
| CCOc1cccc2sc(Nc3nc4c(F)cccc4s3)nc12 | inactive: 111% |
| Cc1ccnc(SCc2cc(=O)c(OC(=O)c3ccc(S(=O)(=O)N4CCCC4)cc3)co2)n1 | inactive: 124% |
| CCOc1cc2c(cc1OCC)C(C)N(C(=O)c1ccc3nc(C)[nH]c3c1)CC2 (configuration not stated) | inactive: 116% |
| CCCCN(Cc1ccccc1)c1ncnc2[nH]cnc12 | inactive: 75.1% |
| Cc1cc2ccccc2n2c(=O)n(CC(C)NC(=O)c3ccnn3C)nc12 (configuration not stated) | inactive: 104% |
| CCOC(=O)CC(NC(=O)Nc1c(-c2ccncc2)[nH]c2ccc(F)cc12)c1ccccc1 (configuration not stated) | inactive: 96.2% |
| O=C(COc1cccc2ccc(N3CCN(c4ccccc4)CC3)nc12)Nc1cccc(F)c1 | inactive: 85.1% |
| CCCCOc1ccccc1C1CC(=O)Nc2c1c(C)nn2-c1nc2ccccc2s1 (configuration not stated) | inactive: 109% |
| COc1cccc(NC(=O)c2cc3c(=O)n4ccccc4nc3n(CC(C)C)c2=N)c1 | inactive: 129% |
| COc1ccccc1OCC(=O)Nc1noc(-c2cccc(C)c2)n1 | inactive: 84.9% |
| O=C(Nc1nnc(-c2ccncc2)o1)c1ccccc1I | inactive: 93.2% |
| COc1ccccc1Cn1cc(C(=O)c2ccccc2)c(=O)c2cc3c(cc21)OCO3 | inactive: 3.97% |
| O=C(COc1ccc(Br)cc1)N/N=C/c1ccco1 | inactive: 107% |
| CCOc1ccc2cc(C#N)c(SCC(=O)Nc3c[nH]c(=O)[nH]c3=O)nc2c1 | inactive: 92.4% |
| COc1ccc(C(=O)N(Cc2cccnc2)c2nc3c(C)cc(Cl)cc3s2)cc1OC | inactive: 56.8% |
| O=c1[nH]cc(S(=O)(=O)N2CCCc3ccccc32)c(=O)[nH]1 | inactive: 106% |
| CCn1c(C)cc2cc(NC(=O)COc3ncnc4ccccc34)ccc21 | inactive: 8.07% |
| COc1cccc2s/c(=N/C(=S)NC(=O)c3ccc(C)cc3)n(C)c12 | inactive: 97.2% |
| O=C(NCc1cccs1)c1ccc(S(=O)(=O)c2ccccc2)nc1 | inactive: 97.5% |
| COc1ccc2cc(CCNC(=O)c3ccc(OC)c(OC)c3)c(=O)[nH]c2c1 | inactive: 93.2% |

5 entries picked at random from those above, as already listed:

| SMILES | intracellular bacterial bioluminescence |
| --- | --- |
| O=C(COc1cccc2ccc(N3CCN(c4ccccc4)CC3)nc12)Nc1cccc(F)c1 | inactive: 85.1% |
| N#Cc1ccc(-c2ccco2)nc1SCC(=O)NCc1ccc2c(c1)OCO2 | inactive: 108% |
| CCOC(=O)c1cccc(NC(=O)C2CCN(c3nccc4c(C)nn(CC)c34)CC2)c1 | inactive: 25.5% |
| COc1ccc(C(=O)N(Cc2cccnc2)c2nc3c(C)cc(Cl)cc3s2)cc1OC | inactive: 56.8% |
| CCOc1ccc2cc(C#N)c(SCC(=O)Nc3c[nH]c(=O)[nH]c3=O)nc2c1 | inactive: 92.4% |

(next part)

| SMILES | intracellular bacterial bioluminescence |
| --- | --- |
| CCOC(=O)c1c(NC(=O)CSc2nc(N)cc(=O)[nH]2)sc2c1CCC2 | inactive: 82.4% |
| CN(c1ccccc1)N1C(=O)/C(=C2/C(=O)Nc3ccc(Br)cc32)SC1=S | inactive: 72.7% |
| N#CC1=C(N)OC2=C(C(=O)CCC2)C1c1ccc(-c2ccc(Br)cc2)o1 (configuration not stated) | inactive: 89.2% |
| Cc1sc2nc(C)n3c(=O)n(Cn4nnc5ccccc54)nc3c2c1C | inactive: 97.9% |
| O=C(NNc1nc2c(F)cc(F)cc2s1)c1ccc(F)cc1 | inactive: 25.5% |
| CCC(Sc1nncn1C)C(=O)Nc1nnc(-c2ccc(OC)cc2OC)s1 (configuration not stated) | inactive: 49.8% |
| O=C(NC1CCN(Cc2cccc(F)c2)CC1)c1cnn(-c2ccc(F)cc2)c1 | inactive: 146% |
| Cc1nc(SCC(=O)NCc2ccco2)c2c3c(sc2n1)CCCC3 | inactive: 82.2% |
| CC(c1ccccc1)n1cnc2c(cnc3nc4ccccc4n32)c1=O (configuration not stated) | inactive: 100% |
| CCCCc1ccc(-n2c(C)c(C)n3c4c(=O)[nH]c(=O)n(C)c4nc23)cc1 | inactive: 114% |
| Cc1nc2c(C)cccn2c(=O)c1NC(=O)COc1ccc2ccccc2c1 | inactive: 95% |
| Cc1ccc(NC(=O)CC2SC(=N)NC2=O)cc1 (configuration not stated) | inactive: 120% |
| COc1ccc(CCNC(=O)Cn2ncn3nc4c(c3c2=O)CCCC4)cc1OC | inactive: 66.7% |
| Cc1ccc(-n2ccn3c(CCCC(=O)O)nnc3c2=O)cc1C | inactive: 119% |
| COc1ccc2nc(NCCCNS(=O)(=O)c3ccc([N+](=O)[O-])cc3)c(C#N)cc2c1 | inactive: 16.2% |
| CCOCCCNC(=O)Cn1nc(-c2ccco2)cc(N)c1=O | inactive: 95.2% |
| Cc1ccc(-c2nc(Cn3nnc(-c4nc(-c5ccccc5Cl)no4)c3C)c(C)o2)cc1 | inactive: 81.7% |
| CCOc1cccc(C2Nc3c(C)cc(C)cc3[C@H]3OCCC[C@@H]23)c1OC (some centres not stated) | inactive: 81.2% |
| O=C1NC(c2ccc3c(c2)OCO3)C(C(=O)c2ccccc2)C(O)(C(F)(F)F)N1 (configuration not stated) | inactive: 113% |
| N#C/C(=C\c1ccc(-c2ccccc2[N+](=O)[O-])o1)C(=O)Nn1cnnc1 | inactive: 113% |
| COc1ccc(NC(=O)N(CCc2ccc(OC)c(OC)c2)Cc2cc3cc(C)ccc3[nH]c2=O)cc1 | inactive: 65.9% |
| COc1ccccc1/C=C/C=C(\C#N)c1nc2ccccc2c(=O)[nH]1 | inactive: 114% |
| CN(Cc1cccc2ncccc12)C(=O)c1cnn(-c2ccc(F)cc2)c1 | inactive: 69.3% |

| SMILES | intracellular bacterial bioluminescence |
| --- | --- |
| CCc1noc2ncnc(N3CCCC(C(=O)NCc4ccccc4F)C3)c12 (configuration not stated) | inactive: 136% |
| Cc1sc2ncnc(NCCC3=CCCCC3)c2c1S(=O)(=O)N1CCCCC1 | inactive: 101% |
| Cc1n[nH]c2c1C(c1cccs1)C(C#N)=C(N)O2 (configuration not stated) | inactive: 106% |
| Clc1cc(Cl)c2nc(N3CCCCC3)sc2c1 | inactive: 90.1% |
| C=CCOC(=O)C1=C(C)Nc2[nH]c(=O)[nH]c(=O)c2C1c1cccc(O)c1 (configuration not stated) | inactive: 117% |
| O=C(O)CCc1nnc(SCC(=O)Nc2ccc(Cl)cc2)[nH]c1=O | inactive: 129% |
| Cc1ccc(NC(=O)NCCNc2nc3cc(C)cc(C)c3cc2C#N)cc1 | inactive: 79.5% |
| CSc1nc2ccc3nc(NC(=O)C4COc5ccccc5O4)sc3c2s1 (configuration not stated) | inactive: 51.3% |
| Cc1nc(N2CCOCC2)ncc1C(=O)NC1CCCC1 | inactive: 119% |
| CCN1C(=O)NC2(CCN(CC(=O)Nc3ccc4c(c3)OCO4)CC2)C1=O | inactive: 113% |
| Cc1cc(CNC(=O)c2c(-c3ccncc3)noc2C)c2[nH]c(C)c(C)c2c1 | inactive: 101% |
| CNS(=O)(=O)c1cc(-c2cc(C(=O)N3CCN(c4ccc(OC)cc4)CC3)n[nH]2)ccc1OC | inactive: 97.9% |
| COc1ccc(OC)c(NC(=O)CC2Sc3ccccc3NC2=O)c1 (configuration not stated) | inactive: 79.8% |
| O=C(NCC1CCCCC1)C1CCCN(C(=O)NCc2ccccc2)C1 (configuration not stated) | inactive: 127% |
| CC1=C(C(=O)Nc2ccccc2F)C(c2ccc(N(C)C)cc2)NC(=O)N1 (configuration not stated) | inactive: 119% |
| Cc1ccc(-c2nc3n(CC(=O)N4CCCCC4C)c(C)c(Cc4ccccc4)c(=O)n3n2)cc1 (configuration not stated) | inactive: 100% |
| Cc1cc(SCc2cccc3ccccc23)nc(=O)[nH]1 | inactive: 116% |
| N#Cc1cc2cc3c(cc2nc1SCC(=O)N(c1ccccc1)c1ccccc1)OCO3 | inactive: 120% |
| COc1ccccc1N1CCN(S(=O)(=O)c2c[nH]c(=O)[nH]c2=O)CC1 | inactive: 129% |
| Cn1c(=O)oc2cc(NS(=O)(=O)c3ccc4c(c3)CCC(=O)N4)ccc21 | inactive: 105% |
| O=C(Cn1c(=O)c2cccnc2n(-c2ccccc2)c1=O)Nc1ccc(Br)cc1 | inactive: 89.2% |
| Cc1cc(C)c2cc(CNCCCN3CCOCC3)c3nn(C)c(=O)n3c2c1 | inactive: 16% |
| N#CC(C(=O)c1ccc(Oc2ccccc2)cc1)=C1Nc2ccccc2N1 | inactive: 96.4% |

Taken from above.
Cc1cc2ccccc2n2c(=O)n(CC(C)NC(=O)c3ccnn3C)nc12 (configuration not stated) | intracellular bacterial bioluminescence: inactive: 104%
Cc1cc(SCc2cccc3ccccc23)nc(=O)[nH]1 | intracellular bacterial bioluminescence: inactive: 116%
